Measured data: PubChem BioAssay AID1508597 (Cure First, 2020)
Screen: 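Survival screen with siRNA in ovarian cancer cells derived from patients, with or without rucaparib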 (primary screen). Cells: human ovarian carcinoma lines grown from tumours: OCI-P5x (papillary serous) and OCI-C5x (clear cell). Reagents: siRNA pool against human genes, 1.25 pmol siRNA per well. Duration: 72 h or 96 h, depending on the cell culture. Treatment: rucaparib 20 µM (about IC30) or vehicle, present until read-out. Rucaparib or vehicle: Rucaparib. Cell line: OCI-C5x (clear cell). Measurement: 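Luminescent ATP-based viability assay read 72 or 96 h after transfection, depending on culture, given as normalised percent viability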. Scale: viability, normalised: higher = more viable cells remaining. Active means: 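a well counts as a hit if its normalised viability is under 80 percent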. Meaning of the calls: active = viability under 80%; inactive = viability 80% or more.
Shown is an unselected part of the about 2,100 reagents, in one setting of the screen. 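Calls flag viability under 80% in either arm, not effects specific to rucaparib; the reference for percent is not stated.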 Entries without a mark were called inactive. No sequences are given here. Not given: the 100% reference.

target gene | PubChem SID | technical replicate | viability, normalised (%)
IKZF1 (IKAROS family zinc finger 1) | SID405526891 | 1 | 65.2 (active)
IKZF1 (IKAROS family zinc finger 1) | SID405526891 | 2 | 41.7 (active)
IKZF1 (IKAROS family zinc finger 1) | SID405526891 | 3 | 51.8 (active)
LMTK2 (lemur tail kinase 2) | SID405527684 | 1 | 56.4 (active)
LMTK2 (lemur tail kinase 2) | SID405527684 | 2 | 64.3 (active)
LMTK2 (lemur tail kinase 2) | SID405527684 | 3 | 58.3 (active)
ZMYND11 (zinc finger MYND-type containing 11) | SID405526654 | 1 | 61.1 (active)
ZMYND11 (zinc finger MYND-type containing 11) | SID405526654 | 2 | 67.5 (active)
ZMYND11 (zinc finger MYND-type containing 11) | SID405526654 | 3 | 48.3 (active)
FANCG (FA complementation group G) | SID405528333 | 1 | 75.3 (active)
FANCG (FA complementation group G) | SID405528333 | 2 | 80.4
FANCG (FA complementation group G) | SID405528333 | 3 | 72.9 (active)
PIK3CG | SID405527619 | 1 | 58.3 (active)
PIK3CG | SID405527619 | 2 | 80.7
PIK3CG | SID405527619 | 3 | 67.9 (active)
STK24 (serine/threonine kinase 24) | SID405527746 | 1 | 68.6 (active)
STK24 (serine/threonine kinase 24) | SID405527746 | 2 | 51.2 (active)
STK24 (serine/threonine kinase 24) | SID405527746 | 3 | 49.5 (active)
SLC6A3 | SID405527316 | 1 | 47.2 (active)
SLC6A3 | SID405527316 | 2 | 41.9 (active)
SLC6A3 | SID405527316 | 3 | 34.1 (active)
RNF40 (ring finger protein 40) | SID405527255 | 1 | 38.6 (active)
RNF40 (ring finger protein 40) | SID405527255 | 2 | 38.9 (active)
RNF40 (ring finger protein 40) | SID405527255 | 3 | 31.6 (active)
ZDHHC17 (zDHHC palmitoyltransferase 17) | SID405526647 | 1 | 50.8 (active)
ZDHHC17 (zDHHC palmitoyltransferase 17) | SID405526647 | 2 | 34.3 (active)
ZDHHC17 (zDHHC palmitoyltransferase 17) | SID405526647 | 3 | 36.8 (active)
ERBB2 (erb-b2 receptor tyrosine kinase 2) | SID405527604 | 1 | 59.3 (active)
ERBB2 (erb-b2 receptor tyrosine kinase 2) | SID405527604 | 2 | 45.7 (active)
ERBB2 (erb-b2 receptor tyrosine kinase 2) | SID405527604 | 3 | 44.8 (active)
DLG5 (discs large MAGUK scaffold protein 5) | SID405527499 | 1 | 37.4 (active)
DLG5 (discs large MAGUK scaffold protein 5) | SID405527499 | 2 | 44.2 (active)
DLG5 (discs large MAGUK scaffold protein 5) | SID405527499 | 3 | 39.6 (active)
CTCFL (CCCTC-binding factor like) | SID405528153 | 1 | 56.4 (active)
CTCFL (CCCTC-binding factor like) | SID405528153 | 2 | 57.4 (active)
CTCFL (CCCTC-binding factor like) | SID405528153 | 3 | 52.8 (active)
PMS2P3 | SID405528359 | 1 | 55.5 (active)
PMS2P3 | SID405528359 | 2 | 56.6 (active)
PMS2P3 | SID405528359 | 3 | 46.8 (active)
TP73 (tumor protein p73) | SID405526578 | 1 | 59.2 (active)
TP73 (tumor protein p73) | SID405526578 | 2 | 64.2 (active)
TP73 (tumor protein p73) | SID405526578 | 3 | 45.3 (active)
DDX24 (DEAD-box helicase 24) | SID405528179 | 1 | 52 (active)
DDX24 (DEAD-box helicase 24) | SID405528179 | 2 | 39.1 (active)
DDX24 (DEAD-box helicase 24) | SID405528179 | 3 | 44.6 (active)
H2AX (H2A.X variant histone) | SID405528443 | 1 | 53.9 (active)
H2AX (H2A.X variant histone) | SID405528443 | 2 | 55.2 (active)
H2AX (H2A.X variant histone) | SID405528443 | 3 | 52.2 (active)
MIS18BP1 (MIS18 binding protein 1) | SID405528056 | 1 | 51.8 (active)
MIS18BP1 (MIS18 binding protein 1) | SID405528056 | 2 | 51.5 (active)
MIS18BP1 (MIS18 binding protein 1) | SID405528056 | 3 | 34.7 (active)
TEC (transient erythroblastopenia of childhood) | SID405527410 | 1 | 52.9 (active)
TEC (transient erythroblastopenia of childhood) | SID405527410 | 2 | 67.9 (active)
TEC (transient erythroblastopenia of childhood) | SID405527410 | 3 | 54.1 (active)
HELQ (helicase, POLQ like) | SID405526853 | 1 | 68.8 (active)
HELQ (helicase, POLQ like) | SID405526853 | 2 | 37.4 (active)
HELQ (helicase, POLQ like) | SID405526853 | 3 | 51.8 (active)
HELQ (helicase, POLQ like) | SID405528476 | 1 | 59.9 (active)
HELQ (helicase, POLQ like) | SID405528476 | 2 | 63.8 (active)
HELQ (helicase, POLQ like) | SID405528476 | 3 | 44.8 (active)
